Reference: PMC11665464

Experiments:
[1] = target: ALYREF-10E R20E,R23E,R27E,R29E,R31E,R217E,R220E,R224E,R226E,R228E (human) (UniProt Q86V81); assay: EMSA; details: 35 mM Tris-HCl pH 7.5, 1 mM DTT, 100 ug/ml BSA, 1 mM MgCl2, 100 mM KCl, 10 min at 30 C, 5 nM nucleic acid, gel at 4 C, recombinant protein, protein details: His6
ALYREF-ΔNC (human) = ALYREF-ΔNC (human) (UniProt Q86V81); assay: EMSA; details: 35 mM Tris-HCl pH 7.5, 1 mM DTT, 100 ug/ml BSA, 1 mM MgCl2, 100 mM KCl, 10 min at 30 C, 5 nM nucleic acid, gel at 4 C, recombinant protein, protein details: His6
[2] = label: 32P, single-stranded DNA

CATTGCATATTTAAAACATGTTGGATCCCACGTTGCATGCTGATAGCCTACTAGAGCTGCATGAATTCAAATGACCTCTTATCAAGTGAC / GTCACTTGATAAGAGGTCATTTGAATTCATGGCTTAGAGCTTAATTGCTGAATCTGGTGCTGGGATCCAACATGTTTTAAATATGCAATG / GCACCAGAUUCAGCAAUUAAGCUCUAAGCCGCUGACGGCUCGAUGCUGAUCGUAGCAUCG [3' R-loop (nonmigratable)]
binding result ([1]; label: 32P): binds more weakly

GGTCCCACCACCAGGTGGGCAAAGATGTCC (double strand) [30-mer dsDNA]
binding result ([1]; label: 32P on one strand): binds more weakly
binding result (ALYREF-ΔNC (human); label: 32P on one strand): binds

GGTCCCACCACCAGGTGGGCAAAGATGTCC [30-mer ssDNA]
binding result [1, 2]: binds more weakly
binding result (ALYREF-ΔNC (human); [2]): binds

GGUCCCACCACCAGGUGGGCAAAGAUGUCC / GGACATCTTTGCCCACCTGGTGGTGGGACC [30-mer RNA-DNA hybrid]
binding result ([1]; label: 32P on RNA strand, DNA:RNA hybrid): binds more weakly

GGUCCCACCACCAGGUGGGCAAAGAUGUCC / GGACAUCUUUGCCCACCUGGUGGUGGGACC [30-mer dsRNA]
binding result ([1]; label: 32P on one strand): binds more weakly
binding result (ALYREF-ΔNC (human); label: 32P on one strand): binds

GGUCCCACCACCAGGUGGGCAAAGAUGUCC [30-mer ssRNA]
binding result ([1]; label: 32P): binds more weakly
binding result (ALYREF-ΔNC (human); label: 32P): binds

For at least one entry, the source does not settle the construct or the ends of the probe. For some of these results: A weaker result is weaker than the reference pair of the same experiment. At least one verdict was read from the data and is not stated in words by the source.
